Measured values from doi:10.1101/2024.09.30.615192.
Like-named read-outs stand apart in the source and are kept apart here. No constants are given. Whether binding was seen depends on the method and setting. In cells and extracts the contact can be indirect. These calls come from enrichment with a bait or labelling near it, and not all partners need be listed. Each block holds one molecule with its values, some of them ahead of it.

Amino acid sequences for entries named in this document (tags omitted).
UniProt Q9HC98: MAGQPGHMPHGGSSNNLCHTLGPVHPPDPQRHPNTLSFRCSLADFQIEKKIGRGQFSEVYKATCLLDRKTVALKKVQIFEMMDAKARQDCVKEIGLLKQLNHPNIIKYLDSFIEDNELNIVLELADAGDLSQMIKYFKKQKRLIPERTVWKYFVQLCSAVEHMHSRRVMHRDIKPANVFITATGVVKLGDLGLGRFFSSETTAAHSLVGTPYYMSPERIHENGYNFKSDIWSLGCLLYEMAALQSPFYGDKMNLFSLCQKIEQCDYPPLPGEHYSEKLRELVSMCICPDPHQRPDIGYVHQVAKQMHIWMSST
UniProt Q9GZM5: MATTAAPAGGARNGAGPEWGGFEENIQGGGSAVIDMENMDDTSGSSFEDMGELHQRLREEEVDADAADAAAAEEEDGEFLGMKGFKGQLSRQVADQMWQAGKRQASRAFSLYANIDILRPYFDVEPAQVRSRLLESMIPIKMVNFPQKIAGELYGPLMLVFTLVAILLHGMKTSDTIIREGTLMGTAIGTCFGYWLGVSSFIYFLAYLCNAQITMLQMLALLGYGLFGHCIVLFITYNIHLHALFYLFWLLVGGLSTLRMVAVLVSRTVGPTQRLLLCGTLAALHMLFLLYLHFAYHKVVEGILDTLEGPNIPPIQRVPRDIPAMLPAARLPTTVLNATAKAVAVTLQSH

Legend:
Assay in all cases: affinity purification with mass spectrometry
[1] = target: SLC1A2 (human) (UniProt P43004)
[2] = target: T1, SLC22A4 (human) (UniProt Q9H015)
T1 sequence: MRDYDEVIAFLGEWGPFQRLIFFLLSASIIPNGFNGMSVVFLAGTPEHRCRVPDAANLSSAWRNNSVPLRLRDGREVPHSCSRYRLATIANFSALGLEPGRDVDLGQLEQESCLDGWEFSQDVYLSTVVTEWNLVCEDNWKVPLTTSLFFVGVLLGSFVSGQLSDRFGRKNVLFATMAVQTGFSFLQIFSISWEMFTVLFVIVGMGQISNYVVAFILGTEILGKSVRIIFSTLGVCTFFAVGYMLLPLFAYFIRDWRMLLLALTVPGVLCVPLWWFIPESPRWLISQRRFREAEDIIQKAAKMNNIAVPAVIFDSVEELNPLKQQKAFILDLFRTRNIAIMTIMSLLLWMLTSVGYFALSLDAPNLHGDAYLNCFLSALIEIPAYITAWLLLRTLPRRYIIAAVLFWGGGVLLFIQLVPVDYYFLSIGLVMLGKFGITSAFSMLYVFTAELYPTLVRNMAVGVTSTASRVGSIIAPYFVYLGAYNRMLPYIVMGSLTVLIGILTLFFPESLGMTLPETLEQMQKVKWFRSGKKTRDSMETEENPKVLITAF

[3] = target: T2, SLC16A1 (human) (UniProt P53985)
T2 sequence: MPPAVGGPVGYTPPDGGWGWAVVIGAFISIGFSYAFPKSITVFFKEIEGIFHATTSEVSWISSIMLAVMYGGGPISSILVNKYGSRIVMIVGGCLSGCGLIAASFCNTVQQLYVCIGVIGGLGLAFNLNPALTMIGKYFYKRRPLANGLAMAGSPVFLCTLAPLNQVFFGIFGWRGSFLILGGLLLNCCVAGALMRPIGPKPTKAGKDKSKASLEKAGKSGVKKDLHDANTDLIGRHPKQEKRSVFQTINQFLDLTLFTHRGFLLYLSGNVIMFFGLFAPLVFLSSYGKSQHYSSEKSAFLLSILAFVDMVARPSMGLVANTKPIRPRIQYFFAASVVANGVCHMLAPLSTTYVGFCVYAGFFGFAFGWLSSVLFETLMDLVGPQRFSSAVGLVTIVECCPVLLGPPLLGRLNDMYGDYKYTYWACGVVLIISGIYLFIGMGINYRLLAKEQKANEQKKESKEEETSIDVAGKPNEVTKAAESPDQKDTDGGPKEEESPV

[4] = target: T3, SLC6A8 (human) (UniProt P48029)
T3 sequence: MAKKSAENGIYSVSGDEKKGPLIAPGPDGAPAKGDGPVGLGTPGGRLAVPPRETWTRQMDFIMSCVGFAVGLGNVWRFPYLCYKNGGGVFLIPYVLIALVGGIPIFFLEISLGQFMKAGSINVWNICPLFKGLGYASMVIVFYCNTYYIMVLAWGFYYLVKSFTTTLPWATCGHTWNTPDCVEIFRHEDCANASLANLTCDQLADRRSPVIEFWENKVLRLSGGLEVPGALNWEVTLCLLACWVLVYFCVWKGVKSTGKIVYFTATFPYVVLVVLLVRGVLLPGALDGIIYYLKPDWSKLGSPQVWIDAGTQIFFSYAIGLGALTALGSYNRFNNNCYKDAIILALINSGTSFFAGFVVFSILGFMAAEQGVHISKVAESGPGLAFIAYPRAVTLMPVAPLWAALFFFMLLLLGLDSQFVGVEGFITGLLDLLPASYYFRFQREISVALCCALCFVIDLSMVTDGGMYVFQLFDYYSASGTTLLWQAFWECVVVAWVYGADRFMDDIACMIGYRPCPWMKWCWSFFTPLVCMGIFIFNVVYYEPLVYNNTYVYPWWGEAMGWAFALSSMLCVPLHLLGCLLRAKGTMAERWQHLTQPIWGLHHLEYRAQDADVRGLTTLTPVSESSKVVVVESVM

[5] = target: SLC1A2 (human) (UniProt P43004); remark: listed apart in the source

Molecule: NEK6 (from UniProt Q9HC98 1-313)
binding [1]: binds

Molecule: YIPF3 (from UniProt Q9GZM5 1-350)
binding [2]: binds

B3: GDPD1 (protein, UniProt Q8N9F7 1-314)
chain: MSSTAAFYLLSTLGGYLVTSFLLLKYPTLLHQRKKQRFLSKHISHRGGAGENLENTMAAFQHAVKIGTDMLELDCHITKDEQVVVSHDENLKRATGVNVNISDLKYCELPPYLGKLDVSFQRACQCEGKDNRIPLLKEVFEAFPNTPINIDIKVNNNVLIKKVSELVKRYNREHLTVWGNANYEIVEKCYKENSDIPILFSLQRVLLILGLFFTGLLPFVPIREQFFEIPMPSIILKLKEPHTMSRSQKFLIWLSDLLLMRKALFDHLTARGIQVYIWVLNEEQEYKRAFDLGATGVMTDYPTKLRDFLHNFSA
binding [5]: binds

Further lines, results first:

binding [3]: binds
B1: Embigin (protein, UniProt Q6PCB8 33-327)
chain: DGSAPDSPFTSPPLREEIMANNFSLESHNISLTEHSSMPVEKNITLERPSNVNLTCQFTTSGDLNAVNVTWKKDGEQLENNYLVSATGSTLYTQYRFTIINSKQMGSYSCFFREEKEQRGTFNFKVPELHGKNKPLISYVGDSTVLTCKCQNCFPLNWTWYSSNGSVKVPVGVQMNKYVINGTYANETKLKITQLLEEDGESYWCRALFQLGESEEHIELVVLSYLVPLKPFLVIVAEVILLVATILLCEKYTQKKKKHSDEGKEFEQIEQLKSDDSNGIENNVPRHRKNESLGQ

binding [4]: binds
B2: ILVBL (protein, UniProt A1L0T0 1-632)
chain: METPAAAAPAGSLFPSFLLLACGTLVAALLGAAHRLGLFYQLLHKVDKASVRHGGENVAAVLRAHGVRFIFTLVGGHISPLLVACEKLGIRVVDTRHEVTAVFAADAMARLSGTVGVAAVTAGPGLTNTVTAVKNAQMAQSPILLLGGAASTLLQNRGALQAVDQLSLFRPLCKFCVSVRRVRDIVPTLRAAMAAAQSGTPGPVFVELPVDVLYPYFMVQKEMVPAKPPKGLVGRVVSWYLENYLANLFAGAWEPQPEGPLPLDIPQASPQQVQRCVEILSRAKRPLMVLGSQALLTPTSADKLRAAVETLGVPCFLGGMARGLLGRNHPLHIRENRSAALKKADVIVLAGTVCDFRLSYGRVLSHSSKIIIVNRNREEMLLNSDIFWKPQEAVQGDVGSFVLKLVEGLQGQTWAPDWVEELREADRQKEQTFREKAAMPVAQHLNPVQVLQLVEETLPDNSILVVDGGDFVGTAAHLVQPRGPLRWLDPGAFGTLGVGAGFALGAKLCRPDAEVWCLFGDGAFGYSLIEFDTFVRHKIPVMALVGNDAGWTQISREQVPSLGSNVACGLAYTDYHKAAMGLGARGLLLSRENEDQVVKVLHDAQQQCRDGHPVVVNILIGRTDFRDGSIAV
